Laboratory results as given in US20030027152, “Generation of diagnostic tools to assay the human LHX3/P-LIM/LIM-3 factor” (Indiana University Advanced Research and Technology …, published 2003).

The chains behind the UniProt entries cited, without tags or fusion partners. Where a name states a change or a piece, a line headed by the entry shows the natural chain unless it says otherwise.
UniProt Q9UBR4: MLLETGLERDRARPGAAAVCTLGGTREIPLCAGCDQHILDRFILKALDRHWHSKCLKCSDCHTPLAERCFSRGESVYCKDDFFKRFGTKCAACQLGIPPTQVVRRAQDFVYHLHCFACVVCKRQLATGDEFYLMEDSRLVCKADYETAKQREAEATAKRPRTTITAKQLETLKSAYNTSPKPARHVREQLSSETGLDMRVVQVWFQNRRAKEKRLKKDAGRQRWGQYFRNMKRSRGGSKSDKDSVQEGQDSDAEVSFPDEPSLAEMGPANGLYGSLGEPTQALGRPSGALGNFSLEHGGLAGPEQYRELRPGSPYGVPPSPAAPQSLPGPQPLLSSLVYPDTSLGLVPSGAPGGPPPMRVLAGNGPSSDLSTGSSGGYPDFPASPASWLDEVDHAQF

Experiments:
Test in all cases: EMSA
[1] = biological target: T1, GST-pLhx3 (Sus scrofa) (UniProt O97581); conditions: weak binding, seen on longer exposure; LIM domains suppress binding; purified recombinant protein; protein details: N-terminal GST (pGEX-KT); label: radiolabel
T1 sequence (limits assumed): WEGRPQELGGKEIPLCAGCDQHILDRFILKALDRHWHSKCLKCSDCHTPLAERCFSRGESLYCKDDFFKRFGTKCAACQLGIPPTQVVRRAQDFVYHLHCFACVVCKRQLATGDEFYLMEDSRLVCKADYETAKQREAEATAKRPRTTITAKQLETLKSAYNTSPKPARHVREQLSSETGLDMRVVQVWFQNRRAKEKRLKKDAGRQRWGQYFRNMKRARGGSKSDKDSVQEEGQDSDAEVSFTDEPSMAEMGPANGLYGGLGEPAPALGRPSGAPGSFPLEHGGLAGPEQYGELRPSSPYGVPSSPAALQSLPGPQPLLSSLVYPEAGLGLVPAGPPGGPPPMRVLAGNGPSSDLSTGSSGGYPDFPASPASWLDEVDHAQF

[2] = biological target: T2, GST-hLhx3b (Homo sapiens) (UniProt Q9UBR4); conditions: purified recombinant protein, protein details: N-terminal GST (pGEX-KT), label: radiolabel
T2 sequence (limits assumed): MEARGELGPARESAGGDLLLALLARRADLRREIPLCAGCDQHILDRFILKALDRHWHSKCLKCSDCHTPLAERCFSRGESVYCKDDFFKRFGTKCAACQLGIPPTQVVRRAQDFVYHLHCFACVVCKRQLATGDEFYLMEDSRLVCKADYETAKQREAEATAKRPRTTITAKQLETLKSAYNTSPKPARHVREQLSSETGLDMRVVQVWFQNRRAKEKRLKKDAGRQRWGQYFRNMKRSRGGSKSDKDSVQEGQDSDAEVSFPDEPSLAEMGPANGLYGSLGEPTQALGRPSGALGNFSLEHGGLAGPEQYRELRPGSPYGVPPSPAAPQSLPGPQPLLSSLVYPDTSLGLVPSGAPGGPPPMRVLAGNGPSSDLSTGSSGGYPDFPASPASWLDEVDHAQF

[3] = biological target: T3, hLhx3b (Homo sapiens) (UniProt Q9UBR4); conditions: less effective than hLhx3a, protein translated in vitro, label: radiolabel
T3 sequence (limits assumed): T2 sequence (limits assumed)

[4] = biological target: T4, hLhx3b-myc (Homo sapiens) (UniProt Q9UBR4); conditions: less effective than hLhx3a-myc; protein translated in vitro; protein details: C-terminal myc (pcDNA3.1/Myc-His); label: radiolabel
T4 sequence (limits assumed): T2 sequence (limits assumed)

“ACATTAGGTACTTAGCTAATTAAATGTG (double strand) [porcine αGSU -351/-324 wild type]”: binds more weakly [1].
“ACATTAGGTACTTAGCTAATTAAATGTG (double strand) [αGSU -350/-323 (PGBE)]”: binds more weakly ([2]; less effective than GST-hLhx3a); binds more weakly ([3]; in vitro translated).
“CAGAAAATTAATTAATTGTAA (double strand) [Lhx3 consensus binding site]”: binds more weakly [2]; binds more weakly [3]; binds more weakly [4].

A weaker result is weaker than the reference pair of the same experiment. Where a protein sequence is shown, tags need not be part of it.
